HELM strings list residues between dots; [ac] is acetyl, [am] amide, other brackets name non-standard units. Square brackets hold non-standard residues; d marks the D form. Dap = NC[C@H](N)C(=O)O
Experiment: general procedure: Fmoc solid-phase peptide synthesis; H-Pro-2-chlorotrityl resin (0.67 to 0.76 mequiv/g); HBTU/DIEA (HATU double coupling after NPhe in MDE9-88c and MDE9-93c); cyclisatio
Settings: whole synthesis, 214 nm

Substance	final HPLC purity [%]
PEPTIDE1{P.R.F.F.N.A.[NPhe].[dP]}$PEPTIDE1,PEPTIDE1,1:R1-8:R2$$$V2.0	>99
PEPTIDE1{P.R.F.F.[Dap].A.[NPhe].[dP]}$PEPTIDE1,PEPTIDE1,1:R1-8:R2$$$V2.0	>99
PEPTIDE1{P.R.F.F.[Dap].[NAla].F.[dP]}$PEPTIDE1,PEPTIDE1,1:R1-8:R2$$$V2.0	>99
PEPTIDE1{P.[NArg].F.F.[Dap].A.F.[dP]}$PEPTIDE1,PEPTIDE1,1:R1-8:R2$$$V2.0	>96
c[Pro-Arg-Phe-Phe-Dap-Ala-PheDPro]	>98
c[Pro-Arg-Phe-Phe-Dap-Val-Phe-DPro]	>95
cyclo(PCFFNAF[dP])	>97
cyclo(PCFF[Dap]AF[dP])	>95
cyclo(PHFFNAF[dP])	>98
cyclo(PHFF[Dap]AF[dP])	>95
cyclo(PRFFNVF[dP])	>98
cyclo(PRYFNAF[dP])	>99
cyclo(PRYF[Dap]AF[dP])	>98

Source: patent publication US20210179666A1 (Regents of the University of Minnesota, priority 2019, published 2021)
